Source: article PMC8144412
These are yes or no findings as the source states them, for the method shown. In cells and extracts the contact can be indirect. Here binding means that the protein was enriched with, or labelled near, the bait; the list need not be complete. Sequences can lack the tags named with a protein.

By UniProt entry, the sequences of proteins in these tests, tags left out.
UniProt Q13620: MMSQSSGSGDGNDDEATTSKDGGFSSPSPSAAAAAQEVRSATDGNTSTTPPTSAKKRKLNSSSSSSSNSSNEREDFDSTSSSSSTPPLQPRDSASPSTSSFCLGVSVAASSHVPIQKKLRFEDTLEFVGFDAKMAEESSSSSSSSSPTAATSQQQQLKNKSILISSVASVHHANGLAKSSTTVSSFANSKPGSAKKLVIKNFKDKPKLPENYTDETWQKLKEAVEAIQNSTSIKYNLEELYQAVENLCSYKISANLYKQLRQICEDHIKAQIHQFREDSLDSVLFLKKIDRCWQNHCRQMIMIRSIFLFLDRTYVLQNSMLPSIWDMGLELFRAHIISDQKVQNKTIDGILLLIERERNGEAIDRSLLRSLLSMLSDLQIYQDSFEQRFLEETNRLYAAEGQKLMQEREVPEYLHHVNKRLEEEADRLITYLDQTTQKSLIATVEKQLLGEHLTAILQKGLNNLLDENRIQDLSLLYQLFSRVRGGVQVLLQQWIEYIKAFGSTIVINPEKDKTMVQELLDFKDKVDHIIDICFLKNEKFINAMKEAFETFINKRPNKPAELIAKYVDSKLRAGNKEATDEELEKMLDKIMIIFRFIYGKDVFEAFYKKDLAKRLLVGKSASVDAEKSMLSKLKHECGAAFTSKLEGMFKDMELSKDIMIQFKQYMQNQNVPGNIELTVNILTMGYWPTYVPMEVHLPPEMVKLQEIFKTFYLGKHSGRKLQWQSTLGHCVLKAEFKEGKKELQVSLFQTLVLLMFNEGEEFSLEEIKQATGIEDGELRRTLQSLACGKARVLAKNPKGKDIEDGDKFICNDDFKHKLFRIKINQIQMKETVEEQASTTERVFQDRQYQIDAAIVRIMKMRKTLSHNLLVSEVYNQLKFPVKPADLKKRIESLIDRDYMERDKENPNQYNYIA
UniProt Q7Z6Z7: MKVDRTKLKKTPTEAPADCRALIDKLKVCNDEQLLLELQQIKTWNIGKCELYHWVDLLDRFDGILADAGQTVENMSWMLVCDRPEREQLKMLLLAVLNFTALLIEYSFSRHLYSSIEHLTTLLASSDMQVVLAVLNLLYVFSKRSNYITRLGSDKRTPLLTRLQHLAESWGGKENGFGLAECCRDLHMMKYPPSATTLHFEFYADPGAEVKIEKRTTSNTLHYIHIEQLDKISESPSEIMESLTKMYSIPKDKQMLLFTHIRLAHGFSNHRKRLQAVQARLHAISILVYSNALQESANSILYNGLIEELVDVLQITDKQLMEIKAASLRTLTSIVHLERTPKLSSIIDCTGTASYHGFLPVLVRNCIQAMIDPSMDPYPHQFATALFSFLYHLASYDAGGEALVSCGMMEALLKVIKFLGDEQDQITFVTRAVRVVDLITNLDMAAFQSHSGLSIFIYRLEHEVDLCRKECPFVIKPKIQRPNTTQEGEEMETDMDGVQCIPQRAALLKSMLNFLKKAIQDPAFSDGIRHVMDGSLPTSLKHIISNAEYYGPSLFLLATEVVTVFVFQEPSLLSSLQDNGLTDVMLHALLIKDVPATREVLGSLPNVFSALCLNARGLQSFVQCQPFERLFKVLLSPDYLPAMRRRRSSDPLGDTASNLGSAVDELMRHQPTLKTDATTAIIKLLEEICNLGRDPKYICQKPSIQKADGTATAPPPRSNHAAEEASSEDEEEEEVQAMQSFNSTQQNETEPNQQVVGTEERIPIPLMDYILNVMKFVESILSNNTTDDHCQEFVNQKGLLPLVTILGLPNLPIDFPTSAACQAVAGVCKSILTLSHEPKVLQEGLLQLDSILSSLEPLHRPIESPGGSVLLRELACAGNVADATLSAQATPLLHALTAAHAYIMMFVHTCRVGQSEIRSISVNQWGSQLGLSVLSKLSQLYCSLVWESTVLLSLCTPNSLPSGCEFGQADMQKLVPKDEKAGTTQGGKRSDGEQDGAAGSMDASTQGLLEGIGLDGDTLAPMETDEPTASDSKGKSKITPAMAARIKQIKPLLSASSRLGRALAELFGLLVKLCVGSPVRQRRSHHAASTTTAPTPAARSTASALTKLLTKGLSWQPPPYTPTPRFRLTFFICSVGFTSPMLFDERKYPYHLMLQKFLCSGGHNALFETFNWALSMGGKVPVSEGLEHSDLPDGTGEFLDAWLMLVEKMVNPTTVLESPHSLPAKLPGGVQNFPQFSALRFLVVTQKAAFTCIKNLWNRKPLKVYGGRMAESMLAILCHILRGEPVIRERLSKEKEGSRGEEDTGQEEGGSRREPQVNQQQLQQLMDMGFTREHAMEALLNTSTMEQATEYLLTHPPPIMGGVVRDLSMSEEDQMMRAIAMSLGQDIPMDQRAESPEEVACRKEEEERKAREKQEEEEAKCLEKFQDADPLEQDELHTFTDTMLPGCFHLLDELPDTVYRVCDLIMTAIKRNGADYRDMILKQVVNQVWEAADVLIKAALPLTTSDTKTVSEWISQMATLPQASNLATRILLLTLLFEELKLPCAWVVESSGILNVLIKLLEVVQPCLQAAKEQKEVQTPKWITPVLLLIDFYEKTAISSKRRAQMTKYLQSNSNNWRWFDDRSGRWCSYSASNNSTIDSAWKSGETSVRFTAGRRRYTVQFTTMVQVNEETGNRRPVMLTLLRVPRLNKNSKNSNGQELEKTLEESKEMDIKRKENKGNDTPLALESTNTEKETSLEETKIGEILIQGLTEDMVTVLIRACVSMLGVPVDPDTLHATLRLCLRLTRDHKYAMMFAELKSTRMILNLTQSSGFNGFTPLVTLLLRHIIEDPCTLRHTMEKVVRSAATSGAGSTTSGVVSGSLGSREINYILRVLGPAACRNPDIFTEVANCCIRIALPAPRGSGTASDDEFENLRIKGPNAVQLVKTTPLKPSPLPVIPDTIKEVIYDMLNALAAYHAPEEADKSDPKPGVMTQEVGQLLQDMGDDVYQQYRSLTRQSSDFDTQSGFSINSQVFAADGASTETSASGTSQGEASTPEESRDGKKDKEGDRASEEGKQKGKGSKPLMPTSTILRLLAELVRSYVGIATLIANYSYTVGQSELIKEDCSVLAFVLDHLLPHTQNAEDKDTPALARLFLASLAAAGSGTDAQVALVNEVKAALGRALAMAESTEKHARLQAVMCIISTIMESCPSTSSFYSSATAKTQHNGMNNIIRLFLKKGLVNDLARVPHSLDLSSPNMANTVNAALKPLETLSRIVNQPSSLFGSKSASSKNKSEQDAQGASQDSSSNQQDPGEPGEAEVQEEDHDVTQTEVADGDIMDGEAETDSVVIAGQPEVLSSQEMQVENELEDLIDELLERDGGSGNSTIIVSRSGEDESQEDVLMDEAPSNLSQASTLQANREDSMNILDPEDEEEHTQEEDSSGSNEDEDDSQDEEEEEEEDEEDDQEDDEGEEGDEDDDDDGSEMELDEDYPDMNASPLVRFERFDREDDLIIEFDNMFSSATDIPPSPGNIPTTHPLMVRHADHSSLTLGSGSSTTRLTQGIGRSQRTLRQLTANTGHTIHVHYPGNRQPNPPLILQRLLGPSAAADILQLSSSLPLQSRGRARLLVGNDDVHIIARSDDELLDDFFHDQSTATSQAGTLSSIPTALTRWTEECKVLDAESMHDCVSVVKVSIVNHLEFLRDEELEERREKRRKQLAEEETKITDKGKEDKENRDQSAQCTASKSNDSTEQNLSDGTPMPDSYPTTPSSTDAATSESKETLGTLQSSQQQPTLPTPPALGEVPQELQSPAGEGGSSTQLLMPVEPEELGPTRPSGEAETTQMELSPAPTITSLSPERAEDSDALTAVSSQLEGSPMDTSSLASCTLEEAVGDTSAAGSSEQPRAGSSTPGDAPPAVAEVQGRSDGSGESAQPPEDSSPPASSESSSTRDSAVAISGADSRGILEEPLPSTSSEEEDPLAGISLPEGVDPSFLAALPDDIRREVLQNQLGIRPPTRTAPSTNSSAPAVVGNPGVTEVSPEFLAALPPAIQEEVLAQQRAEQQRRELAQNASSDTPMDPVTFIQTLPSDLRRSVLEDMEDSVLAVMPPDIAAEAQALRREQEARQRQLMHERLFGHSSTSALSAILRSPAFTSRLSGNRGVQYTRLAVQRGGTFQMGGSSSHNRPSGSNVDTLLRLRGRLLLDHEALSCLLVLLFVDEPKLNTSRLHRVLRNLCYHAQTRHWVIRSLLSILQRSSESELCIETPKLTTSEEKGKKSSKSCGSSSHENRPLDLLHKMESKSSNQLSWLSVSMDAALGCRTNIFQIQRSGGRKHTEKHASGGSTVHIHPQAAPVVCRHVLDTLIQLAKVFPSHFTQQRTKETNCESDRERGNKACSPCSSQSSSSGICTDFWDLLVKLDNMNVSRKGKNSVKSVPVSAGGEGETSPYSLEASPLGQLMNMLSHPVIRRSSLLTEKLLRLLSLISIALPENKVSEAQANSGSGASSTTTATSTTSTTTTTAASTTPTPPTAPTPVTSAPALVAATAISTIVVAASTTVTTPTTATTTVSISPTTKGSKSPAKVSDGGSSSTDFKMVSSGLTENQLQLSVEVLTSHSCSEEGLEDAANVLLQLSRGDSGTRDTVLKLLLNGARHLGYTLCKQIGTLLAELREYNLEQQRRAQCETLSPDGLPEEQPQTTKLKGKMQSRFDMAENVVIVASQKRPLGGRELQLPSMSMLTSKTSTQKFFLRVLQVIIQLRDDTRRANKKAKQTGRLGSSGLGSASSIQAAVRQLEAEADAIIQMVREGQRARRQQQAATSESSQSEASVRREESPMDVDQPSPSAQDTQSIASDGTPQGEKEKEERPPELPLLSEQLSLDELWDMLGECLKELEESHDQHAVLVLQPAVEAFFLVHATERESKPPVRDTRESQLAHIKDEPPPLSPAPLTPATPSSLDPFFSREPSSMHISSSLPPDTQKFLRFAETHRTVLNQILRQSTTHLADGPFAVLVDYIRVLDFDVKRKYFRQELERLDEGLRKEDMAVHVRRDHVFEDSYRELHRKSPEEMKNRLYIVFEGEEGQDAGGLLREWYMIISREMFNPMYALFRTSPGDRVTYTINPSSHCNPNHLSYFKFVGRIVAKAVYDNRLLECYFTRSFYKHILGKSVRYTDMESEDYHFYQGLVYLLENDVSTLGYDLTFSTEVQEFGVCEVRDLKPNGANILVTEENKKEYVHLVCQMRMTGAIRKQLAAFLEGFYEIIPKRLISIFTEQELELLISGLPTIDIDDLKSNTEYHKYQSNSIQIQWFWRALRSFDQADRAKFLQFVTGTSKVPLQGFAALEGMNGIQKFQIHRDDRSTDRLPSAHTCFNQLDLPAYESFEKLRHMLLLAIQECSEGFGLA
UniProt P19474: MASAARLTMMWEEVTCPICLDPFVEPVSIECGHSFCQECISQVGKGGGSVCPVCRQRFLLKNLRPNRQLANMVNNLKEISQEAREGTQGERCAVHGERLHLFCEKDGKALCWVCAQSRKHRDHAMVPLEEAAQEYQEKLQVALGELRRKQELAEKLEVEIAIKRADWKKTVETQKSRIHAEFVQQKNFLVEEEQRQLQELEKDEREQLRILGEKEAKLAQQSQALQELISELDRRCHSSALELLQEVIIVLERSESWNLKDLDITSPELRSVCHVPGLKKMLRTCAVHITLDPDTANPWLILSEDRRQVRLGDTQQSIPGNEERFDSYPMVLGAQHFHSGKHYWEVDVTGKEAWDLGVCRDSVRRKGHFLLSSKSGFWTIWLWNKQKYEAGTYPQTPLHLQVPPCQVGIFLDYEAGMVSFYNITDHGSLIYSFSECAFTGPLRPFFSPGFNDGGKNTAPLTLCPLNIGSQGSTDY

Biological target: T1, 3xFlag-PPDPF (293T cells) (human) (UniProt Q9H3Y8)
T1 sequence: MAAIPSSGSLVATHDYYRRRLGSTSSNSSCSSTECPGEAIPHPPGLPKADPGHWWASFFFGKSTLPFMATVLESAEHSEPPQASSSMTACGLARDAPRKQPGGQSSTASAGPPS
Test: affinity purification with mass spectrometry; mass spectrometry analysis using 293T cells expressing 3xFlag-PPDPF

Row | binding | Substance
1 | binds | CUL4B (from UniProt Q13620 1-913)
2 | binds | HUWE1 (from UniProt Q7Z6Z7 1-4374)
3 | binds | TRIM21 (from UniProt P19474 1-475)
